Assay [1] addresses SUMO1 (mouse (endogenous in primary cardiomyocytes from mice)) (UniProt P63166). The experiment in a line: affinity purification with mass spectrometry; immunoprecipitation with anti-SENP1 or anti-SUMO1 antibody from primary cardiomyocytes, with and without myocardial injury; mass spectrometry of what was pulled down.
In assay [2] the target is T1, sentrin‐specific protease 1 (SENP1) (not stated (endogenous in primary cardiomyocytes; those of Figure 7B are from mice)) (UniProt P59110).
T1 sequence: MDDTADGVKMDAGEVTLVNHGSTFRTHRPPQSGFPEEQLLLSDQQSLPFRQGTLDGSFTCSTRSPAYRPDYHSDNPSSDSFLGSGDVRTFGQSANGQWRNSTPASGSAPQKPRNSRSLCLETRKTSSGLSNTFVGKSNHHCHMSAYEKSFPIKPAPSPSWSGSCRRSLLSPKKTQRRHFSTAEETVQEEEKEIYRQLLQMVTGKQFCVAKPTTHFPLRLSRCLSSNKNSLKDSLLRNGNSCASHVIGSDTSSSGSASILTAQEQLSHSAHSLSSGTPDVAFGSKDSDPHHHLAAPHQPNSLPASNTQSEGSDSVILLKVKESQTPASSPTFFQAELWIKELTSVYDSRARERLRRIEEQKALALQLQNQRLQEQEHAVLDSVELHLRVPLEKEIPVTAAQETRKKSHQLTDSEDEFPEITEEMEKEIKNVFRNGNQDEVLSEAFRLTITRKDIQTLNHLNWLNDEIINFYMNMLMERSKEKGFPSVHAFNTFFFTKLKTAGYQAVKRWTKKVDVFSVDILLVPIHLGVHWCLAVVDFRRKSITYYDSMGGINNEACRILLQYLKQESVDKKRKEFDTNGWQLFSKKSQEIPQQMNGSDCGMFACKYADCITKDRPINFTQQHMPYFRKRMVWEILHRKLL
The description is as above.

Amino acid sequences for entries named in this document (tags omitted). A change or cut given only in a name is not applied to a line headed by its entry. Residues count along the entry.
UniProt Q921I1: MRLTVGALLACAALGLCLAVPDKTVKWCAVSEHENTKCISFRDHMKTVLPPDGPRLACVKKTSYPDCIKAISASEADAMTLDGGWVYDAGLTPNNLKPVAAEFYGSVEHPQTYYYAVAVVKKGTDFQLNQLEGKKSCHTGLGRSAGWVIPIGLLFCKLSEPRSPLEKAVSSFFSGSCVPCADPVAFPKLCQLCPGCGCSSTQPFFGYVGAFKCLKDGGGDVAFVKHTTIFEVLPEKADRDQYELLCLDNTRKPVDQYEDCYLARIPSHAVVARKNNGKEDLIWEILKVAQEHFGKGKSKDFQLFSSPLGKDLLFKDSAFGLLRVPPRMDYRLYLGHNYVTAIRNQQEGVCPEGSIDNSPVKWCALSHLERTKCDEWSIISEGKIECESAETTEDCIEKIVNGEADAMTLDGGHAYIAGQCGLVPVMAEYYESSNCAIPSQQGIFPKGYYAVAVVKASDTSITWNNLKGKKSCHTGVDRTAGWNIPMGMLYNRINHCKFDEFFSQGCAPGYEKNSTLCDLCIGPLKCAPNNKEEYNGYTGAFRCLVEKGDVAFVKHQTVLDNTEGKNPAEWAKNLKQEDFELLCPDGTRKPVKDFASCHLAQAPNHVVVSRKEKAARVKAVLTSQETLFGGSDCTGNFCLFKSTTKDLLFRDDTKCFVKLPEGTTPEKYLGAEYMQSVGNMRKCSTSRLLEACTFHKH
UniProt Q9WUM5, residues 35-346: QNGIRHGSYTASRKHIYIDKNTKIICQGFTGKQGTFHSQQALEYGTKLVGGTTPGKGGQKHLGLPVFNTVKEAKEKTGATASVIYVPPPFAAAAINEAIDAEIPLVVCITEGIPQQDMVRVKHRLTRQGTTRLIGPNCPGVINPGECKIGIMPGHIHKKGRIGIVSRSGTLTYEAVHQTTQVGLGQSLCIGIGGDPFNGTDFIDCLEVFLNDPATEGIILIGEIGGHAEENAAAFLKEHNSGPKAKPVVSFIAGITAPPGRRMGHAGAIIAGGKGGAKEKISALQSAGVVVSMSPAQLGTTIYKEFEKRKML

These are yes or no findings as the source states them, for the method shown. In cells and extracts the contact can be indirect. Here binding means that the protein was enriched with, or labelled near, the bait; the list need not be complete.

For TRF (from UniProt Q921I1 20-697), the binding result in assay [1] and in assay [2] was “binds” throughout.
SUCLG1 (from UniProt Q9WUM5 35-346): the binding entry in assay [1] and in assay [2] was “binds” each time.

B1: PiC (protein, UniProt Q8VEM8 46-357)
chain: AVEEYSCEFGSMKYYALCGFGGVLSCGLTHTAVVPLDLVKCRMQVDPQKYKGIFNGFSITLKEDGVRGLAKGWAPTLIGYSMQGLCKFGFYEVFKALYSNILGEENTYLWRTSLYLASSASAEFFADIALAPMEAAKVRIQTQPGYANTLREAVPKMYKEEGLNAFYKGVAPLWMRQIPYTMMKFACFERTVEALYKFVVPKPRSECTKAEQLVVTFVAGYIAGVFCAIVSHPADSVVSVLNKEKGSTASQVLQRLGFRGVWKGLFARIIMIGTLTALQWFIYDSVKVYFRLPRPPPPEMPESLKKKLGLTE
With B1, the binding entry in assay [1] and in assay [2] was “binds” in each case.

B2: ACADM1 (protein, UniProt P45952 26-421)
chain: KAAHKQEPGLGFSFELTEQQKEFQATARKFAREEIIPVAPEYDKSGEYPFPLIKRAWELGLINAHIPESCGGLGLGTFDACLITEELAYGCTGVQTAIEANSLGQMPVILAGNDQQKKKYLGRMTEQPMMCAYCVTEPSAGSDVAAIKTKAEKKGDEYVINGQKMWITNGGKANWYFLLARSNPDPKVPASKAFTGFIVEADTPGIHIGKKELNMGQRCSDTRGIAFEDVRVPKENVLIGEGAGFKIAMGAFDRTRPTVAAGAVGLAQRALDEATKYALDRKTFGKLLVEHQGVSFLLAEMAMKVELARLSYQRAAWEVDSGRRNTYYASIAKAFAGDIANQLATDAVQIFGGYGFNTEYPVEKLMRDAKIYQIYEGTAQIQRLIIAREHIEKYKN
Regarding B2, the binding entry in assay [1] and in assay [2] was “binds” throughout.

B3: PDHB (protein, UniProt Q9D051 31-359)
chain: VQLTVREAINQGMDEELERDEKVFLLGEEVAQYDGAYKVSRGLWKKYGDKRIIDTPISEMGFAGIAVGAAMAGLRPICEFMTFNFSMQAIDQVINSAAKTYYMSAGLQPVPIVFRGPNGASAGVAAQHSQCFAAWYGHCPGLKVVSPWNSEDAKGLIKSAIRDNNPVVMLENELMYGVAFELPAEAQSKDFLIPIGKAKIERQGTHITVVAHSRPVGHCLEAAAVLSKEGIECEVINLRTIRPMDIEAIEASVMKTNHLVTVEGGWPQFGVGAEICARIMEGPAFNFLDAPAVRVTGADVPMPYAKVLEDNSVPQVKDIIFAVKKTLNI
As for B3, the binding entry in assay [1] and in assay [2] was “binds” each time.

Values taken from publication PMC11425837.
